# Laboratory results as given in paper PMC11568337.
# These are yes or no findings as the source states them, for the method shown. Binding seen in cells or lysates may run through a third protein. Here binding means that the protein was enriched with, or labelled near, the bait; the list need not be complete.
# T1: actin-specific bicyclic peptide A15
# T1 sequence (peptide, FITC labeled; bicyclic (circularized) peptide): ACYRQWNKCENGWVRCG
# T2: actin-specific bicyclic peptide A18
# T2 sequence (peptide, FITC labeled; bicyclic (circularized) peptide): ACREGQVACMVRKFECG
# Columns and labels:
# [1] = target: actin (S. cerevisiae (endogenous in yeast extract)) (UniProt P60010); test: affinity purification with mass spectrometry; actin captured from total yeast cell lysate by bead-bound bicyclic peptide A18 (F-actin specific), 1.5 h at 4 °C; 50 mM HEPES pH 7.5, 20 mM NaCl, 1 mM EDTA, 0.1% Triton X-100; proteins recovered with actin identified by mass spectrometry of silver-stained bands
# [2] = target: actin (S. cerevisiae (endogenous in yeast extract)) (UniProt P60010); test: affinity purification with mass spectrometry; actin captured from total yeast cell lysate by bead-bound bicyclic peptide A15 (F- and G-actin), 1.5 h at 4 °C; 50 mM HEPES pH 7.5, 20 mM NaCl, 1 mM EDTA, 0.1% Triton X-100; proteins recovered with actin identified by mass spectrometry of silver-stained bands
# [3] = target: T1, actin-specific bicyclic peptide A15; test: affinity purification with mass spectrometry; FITC-labelled bicyclic peptide A15 (F- and G-actin) on anti-FITC antibody/Protein G Dynal beads; total yeast cell lysate, 1.5 h at 4 °C; 50 mM HEPES pH 7.5, 20 mM NaCl, 1 mM EDTA, 0.1% Triton X-100; silver-stained bands identified by mass spectrometry; pair: peptide and actin; only the target purified
# [4] = target: T2, actin-specific bicyclic peptide A18; test: affinity purification with mass spectrometry; FITC-labelled bicyclic peptide A18 (F-actin specific) on anti-FITC antibody/Protein G Dynal beads; total yeast cell lysate, 1.5 h at 4 °C; 50 mM HEPES pH 7.5, 20 mM NaCl, 1 mM EDTA, 0.1% Triton X-100; silver-stained bands identified by mass spectrometry; pair: peptide and actin; only the target purified
Molecule,binding [1],binding [2],binding [3],binding [4]
actin (from UniProt P60010 1-375),,,binds,binds
"Sla2 (protein, UniProt P33338 1-968) MSRIDSDLQKALKKACSVEETAPKRKHVRACIVYTWDHQSSKAVFTTLKTLPLANDEVQLFKMLIVLHKIIQEGHPSALAEAIRDRDWIRSLGRVHSGGSSYSKLIREYVRYLVLKLDFHAHHRGFNNGTFEYEEYVSLVSVSDPDEGYETILDLMSLQDSLDEFSQIIFASIQSERRNTECKISALIPLIAESYGIYKFITSMLRAMHRQLNDAEGDAALQPLKERYELQHARLFEFYADCSSVKYLTTLVTIPKLPVDAPDVFLINDVDESKEIKFKKREPSVTPARTPARTPTPTPPVVAEPAISPRPVSQRTTSTPTGYLQTMPTGATTGMMIPTATGAANAIFPQATAQMQPDFWANQQAQFANEQNRLEQERVQQLQQQQAQQELFQQQLQKAQQDMMNMQLQQQNQHQNDLIALTNQYEKDQALLQQYDQRVQQLESEITTMDSTASKQLANKDEQLTALQDQLDVWERKYESLAKLYSQLRQEHLNLLPRFKKLQLKVNSAQESIQKKEQLEHKLKQKDLQMAELVKDRDRARLELERSINNAEADSAAATAAAETMTQDKMNPILDAILESGINTIQESVYNLDSPLSWSGPLTPPTFLLSLLESTSENATEFATSFNNLIVDGLAHGDQTEVIHCVSDFSTSMATLVTNSKAYAVTTLPQEQSDQILTLVKRCAREAQYFFEDLMSENLNQVGDEEKTDIVINANVDMQEKLQELSLAIEPLLNIQSVKSNKETNPHSELVATADKIVKSSEHLRVDVPKPLLSLALMIIDAVVALVKAAIQCQNEIATTTSIPLNQFYLKNSRWTEGLISAAKAVAGATNVLITTASKLITSEDNENTSPEQFIVASKEVAASTIQLVAASRVKTSIHSKAQDKLEHCSKDVTDACRSLGNHVMGMIEDDHSTSQQQQPLDFTSEHTLKTAEMEQQVEILKLEQSLSNARKRLGEIRRHAYYNQDDD",binds,binds,,

# Second part, the molecule after the results:
binding [1],binding [2],binding [3],binding [4],Molecule
binds,binds,,,Las17 (from UniProt Q12446 1-633)
binds,binds,,,"Pan1 (protein, UniProt P32521 1-1480) MYNPYQQQGMGYQQQQQQQQQQPNGFYPQQQQGQSSNQPQGQPQPQQQMAFNQPQATGIGGMPQSFGNSFSSMPQQPQTGYNNNGNNGSVYGNGNFGQQPQQQQQQAKPQHTGYVPNSSMPMMNTTGTMPPPNPAQQPQLQSIQPQGTGYYQAANTANVHSVQPLQSQGTGYYVSTPNLISSNQTQQPLQAQGTGYYQSQPQQVPPPQQAQSLQPLKPQQTGFYLQPQNQAPLEPLKPTATGFVNSFANNGLNNDIKIPAIRLSFITAQDQAKFETLFRSIVTNGSNTVSGANCRKILMRSGLPPSQLARIWTLCDTSKAGELLFPEFALAMHLINDVLQGDTIPYELDSKTKNEVSSFIDAINLSIANQDSSANDAPKTPFDEFITAGVQNLQPQPTGYMPQTSFGIPLQSQITGGGVASALNPQSTGFMAPTTFNMSMNTGTPGLNPQITGGAPASMQPNITGNALQPQTTGMMPQTTGMMPQTTGMMPQTSFGVNLGPQLTGGALQSQYTGGYGSVMPQQSGPASMPNLSFNQQGLQSQLTGLQPQPTGFLPPSNFSATMPLTAQKTGFGNNEIYTKSNFNNNLIDNSSQDKISTEEKSLFYKIFETFDTQNKGLLDSPTAVEIFRKSGLNRADLEQIWNLCDINNTGQLNKQEFALGMHLVYGKLNGKPIPNVLPSSLIPSSTKLLDNLKNQLKTEPTTTKEKPSFGKIDALSYKNNDDDVLPNYRNRRKVYSAKNEEQSSFSSPSAKSVNHSSSTLQTDDISVDKTVEKKTAKPKYAGFSREINLKNIASLENEIKNISNPENCYDSSIPSDLTSRFDAIIAKLPNLFNEISTIDNEITNAKIQLYRKKNPSSIIGSGPNGEITENDRKKAKSRALLRARMSALTGKSTESEDSLSMEDEQQSAEIKRIQQENGKNQEIIKDIRSSISDISASLKSTMTGSNMISNQEFERWEFGIGLEDGVREFLDDLKSNSNKSVTESSPFVPSSTPTPVDDRSSSPSYSQFKTAEERAAYLKEQAKKRMKEKLAKFDKNRRNVTQSSRSISSENSREQPQQIAGSSNLVEPRATPFQEEKYVEVAQPTQPVQSTQPVQPTQPVQPTQPVQPTQPVQPTQPVQPTQPVQNVYNAKQESDDEDEDDEEKRLQEELKRLKLKKKADKEKRLAALRKQIEDAQNESDEEETNGKDNFGGHVNVPQAAPVAPSAAFSQNSTNAPRSVHAAVTPAAGKNSTGLPSTTMGHNPYFKDASASSTSTFDARAAEMQRRIQRGLDEDEDDGWSDEDESNNRVAVDNKVEEAKIGHPDHARAPPVTAAPLPSVTPVPPAVPVPQANTSNEKSSPIPIAPIPPSVTQEPPVPLAPPLPAVDGFQEPPIPSAPAIATAVQKSGSSTPALAGGVLPPPPPLPTQQASTSEPIIAHVDNYNGAEKGTGAYGSDSDDDVLSIPESVGTDEEEEGAQPVSTAGIPSIPPAGIPPPPPLP"
